Reference: paper PMC11180186
No constants are given. Whether binding was seen depends on the method and setting. Binding seen in cells or lysates may run through a third protein. Some entries that bind do so weakly or less than the wild type.

By UniProt entry, the sequences of proteins in these tests, tags left out.
UniProt P26599: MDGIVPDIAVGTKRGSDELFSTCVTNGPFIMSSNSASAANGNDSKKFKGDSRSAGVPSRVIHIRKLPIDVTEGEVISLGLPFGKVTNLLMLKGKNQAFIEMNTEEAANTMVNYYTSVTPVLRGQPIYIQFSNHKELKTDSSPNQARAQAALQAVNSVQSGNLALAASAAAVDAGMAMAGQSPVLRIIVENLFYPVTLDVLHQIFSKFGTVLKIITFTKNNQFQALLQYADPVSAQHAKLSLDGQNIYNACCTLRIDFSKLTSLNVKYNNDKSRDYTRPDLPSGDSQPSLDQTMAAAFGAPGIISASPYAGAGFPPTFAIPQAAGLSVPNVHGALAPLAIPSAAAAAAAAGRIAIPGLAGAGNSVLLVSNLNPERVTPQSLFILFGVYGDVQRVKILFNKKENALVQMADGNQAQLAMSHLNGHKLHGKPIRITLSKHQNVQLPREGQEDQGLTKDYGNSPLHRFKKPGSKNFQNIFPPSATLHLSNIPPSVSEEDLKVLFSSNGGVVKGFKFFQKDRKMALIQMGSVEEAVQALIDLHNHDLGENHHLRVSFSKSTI

Molecular target: methyl-CpG binding protein 2 (MECP2), human, endogenous in ReNcell CX cells (human (endogenous in ReNcell CX)) (UniProt P51608)
Assay: co-IP; co-IP from nuclear extracts of human ReNcell CX cells, control or treated with folic acid or 5AZA; western blot, quantified with ImageJ

binding: binds
Substance: polypyrimidine tract-binding protein PTBP1, human, endogenous in ReNcell CX cells (from UniProt P26599 1-557)
